This is one part of the list. Single values are uncertain, as repeats are few or missing.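 Imaging used 1,536-well plates; nuclei positive for cleaved PARP by antibody were divided by total DNA-stained nuclei to yield the apoptosis fraction. Doses for screening kept most cells viable, and cell lines differ markedly in resting and induced cleaved-PARP levels.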
Experiments:
Experiment in all cases: cleaved PARP positive nuclei fraction relative to DMSO control; melanoma cells; higher = more apoptosis
Details in all cases: library dose: low library concentration; 72 h
MZ2-MEL = test system: MZ2-MEL
MeWo = test system: MeWo
RPMI7951 = test system: RPMI7951
RVH-421 = test system: RVH-421
SkMel28 = test system: SkMel28
SkMel2 = test system: SkMel2
SkMel30 = test system: SkMel30
SkMel5 = test system: SkMel5
UACC257 = test system: UACC257
UACC62 = test system: UACC62

SMILES | cleaved PARP positive nuclei fraction (MZ2-MEL) [%] | cleaved PARP positive nuclei fraction (MeWo) [%] | cleaved PARP positive nuclei fraction (RPMI7951) [%] | cleaved PARP positive nuclei fraction (RVH-421) [%] | cleaved PARP positive nuclei fraction (SkMel28) [%] | cleaved PARP positive nuclei fraction (SkMel2) [%] | cleaved PARP positive nuclei fraction (SkMel30) [%] | cleaved PARP positive nuclei fraction (SkMel5) [%] | cleaved PARP positive nuclei fraction (UACC257) [%] | cleaved PARP positive nuclei fraction (UACC62) [%]
NC1(c2ccc(-c3nc4ccn5c(=O)[nH]nc5c4cc3-c3ccccc3)cc2)CCC1 + COc1cc(N2CCC(N3CCN(C)CC3)CC2)ccc1Nc1ncc(Cl)c(Nc2ccccc2S(=O)(=O)C(C)C)n1 [NVP-TAE684] (first compound 0.4 µM, partner dose 0.08 µM) | 93.3 | 43.9 | 28.4 | 59.2 | 246 | 64.8 | 126 | 70.3 | 317 | 731
Cn1cnc2c(F)c(Nc3ccc(Br)cc3Cl)c(C(=O)NOCCO)cc21 [selumetinib] + O=C(O)C(=O)Nc1sc2c(c1C(=O)O)CCNC2 [TCS401] (first compound 0.015 µM, partner dose 1.66667 µM) | 97.2 | 79.5 | 85.5 | 96.8 | 138 | 206 | 37.1 | 36.2 | 202 | 320
NC1(c2ccc(-c3nc4ccn5c(=O)[nH]nc5c4cc3-c3ccccc3)cc2)CCC1 + c1cc(-c2cnn3cc(-c4ccc(OCCN5CCCCC5)cc4)cnc23)ccn1 [Dorsomorphin] (first compound 0.4 µM, partner dose 0.4 µM) | 30.7 | 62.4 | 81.6 | 133 | 212 | 64.2 | 44.5 | 91.5 | 95.6 | 257
CN(c1ncccc1CNc1nc(Nc2ccc3c(c2)CC(=O)N3)ncc1C(F)(F)F)S(C)(=O)=O + NC(=O)Nc1cc(-c2cccc(F)c2)sc1C(=O)N[C@H]1CCCNC1 [AZD7762] (first compound 0.08 µM, partner dose 0.02 µM) | 227 | 90.9 | 108 | 40.2 | 290 | 150 | 146 | 83 | 52.3 | 139
Cn1sc(=O)n(Cc2ccccc2)c1=O + Cn1cc(/C=C2\C(=O)Nc3cccnc32)c2ccccc21 [GW441756] (first compound 0.4 µM, partner dose 0.4 µM) | 70.7 | 60.3 | 86.1 | 53.8 | 133 | 38.3 | 93.6 | 108 | 246 | 135
C[C@@H](N)c1ccc(C(=O)Nc2ccnc3[nH]ccc23)cc1 + CN(NC(=O)CC(=O)NN(C)C(=S)c1ccccc1)C(=S)c1ccccc1 [STA4783] (first compound 0.4 µM, partner dose 0.006 µM) | 290 | 475 | 60.6 | 59 | 571 | 71.2 | 34.6 | 101 | 241 | 1130
CCCCCCCCc1ccc(CCC(N)(CO)CO)cc1 [fingolimod] + O=S(=O)(c1ccccc1)N(CC(F)(F)F)c1ccc(C(O)(C(F)(F)F)C(F)(F)F)cc1 [T0901317] (first compound 2 µM, partner dose 1.4 µM) | 51.5 | 43.3 | 226 | 66.9 | 197 | 73.1 | 68.6 | 106 | 79.6 | 174
C[C@]1(O)C[C@@H](c2nc(-c3ccc4ccc(-c5ccccc5)nc4c3)c3c(N)nccn32)C1 + O=C(Nc1cccc(Cl)c1)Nc1ncc(CCNc2ncnc3ccsc23)s1 [SNS314] (first compound 0.4 µM, partner dose 0.0008 µM) | 79.6 | 69.7 | 94.9 | 26.5 | 200 | 137 | 65.3 | 176 | 210 | 179
CS(=O)(=O)c1ccc(C(=O)Nc2ccc(Cl)c(-c3ccccn3)c2)c(Cl)c1 [vismodegib] + CC(C)CCN1c2nc(Nc3cc(F)c(O)c(F)c3)ncc2N(C)C(=O)C1C [BID1870] (first compound 1 µM, partner dose 0.2 µM) | 160 | 86.4 | 92.9 | 96.5 | 77.8 | 71.7 | 175 | 71.5 | 105 | 92.5
CC1(C)CCC(c2ccc(Cl)cc2)=C(CN2CCN(c3ccc(C(=O)NS(=O)(=O)c4ccc(N[C@H](CCN5CCOCC5)CSc5ccccc5)c(S(=O)(=O)C(F)(F)F)c4)cc3)CC2)C1 + O=c1cc(-c2cccc3c2Sc2ccccc2S3)oc(N2CCOCC2)c1 [KU55933] (first compound 0.4 µM, partner dose 1 µM) | 216 | 231 | 145 | 95.1 | 193 | 235 | 646 | 588 | 81.5 | 84.3
